Results deposited as PubChem BioAssay AID1224830 (NIAID, 2016).

- Assay: 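Genes whose knock-down alters the TNF-alpha reporter response to LPS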 (primary screen)
- Cell system: human THP-1 monocytic leukaemia cells, TNF dual-luciferase reporter clone, PMA-differentiated to macrophage-like cells
- Reagent: siRNA pool against human genes, 50 nM
- Timing: LPS for 4 h, given about 3 days after siRNA transfection
- Treatment: bacterial LPS (TLR4 ligand), 10 ng/ml
- Detection: 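TNF firefly reporter luminescence divided by renilla, normalised to the plate median, then turned into a robust z-score for each replicate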
- Scale: TNF reporter robust z-score: higher = stronger TNF reporter response to LPS
- Call rule: 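a well is active when its z-score exceeds 2.8 or falls below -1.5; control wells carry no call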
Shown is one part, drawn at random, of about 18,000 reagents tested. In the full data, about 2,900 (16%) are marked active. 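Calls are made per well; low scores hint the gene aids the LPS response, high scores that it dampens it.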 Entries without a mark were called inactive. Repeated entries: four replicate wells of each siRNA pool.

no.	target	TNF reporter robust z-score
1	COLEC12 (GeneID 81035)	-0.35
2	COLEC12 (GeneID 81035)	0.98
3	COLEC12 (GeneID 81035)	0.7
4	COLEC12 (GeneID 81035)	0.81
5	DCAKD (GeneID 79877)	-0.71
6	DCAKD (GeneID 79877)	-0.36
7	DCAKD (GeneID 79877)	-1.1
8	DCAKD (GeneID 79877)	-0.98
9	ZNF740 (GeneID 283337)	0.48
10	ZNF740 (GeneID 283337)	0.35
11	ZNF740 (GeneID 283337)	0.54
12	ZNF740 (GeneID 283337)	1.09
13	KAZALD1 (GeneID 81621)	-0.57
14	KAZALD1 (GeneID 81621)	0.01
15	KAZALD1 (GeneID 81621)	-0.19
16	KAZALD1 (GeneID 81621)	-0.48
17	TLE1 (GeneID 7088)	-0.97
18	TLE1 (GeneID 7088)	0.67
19	TLE1 (GeneID 7088)	-0.71
20	TLE1 (GeneID 7088)	-0.58
21	OR8G2P (GeneID 26492)	-0.3
22	OR8G2P (GeneID 26492)	-0.06
23	OR8G2P (GeneID 26492)	-0.26
24	OR8G2P (GeneID 26492)	2.45
25	LPCAT2 (GeneID 54947)	-0.65
26	LPCAT2 (GeneID 54947)	-0.32
27	LPCAT2 (GeneID 54947)	-0.89
28	LPCAT2 (GeneID 54947)	-0.49
29	ZNF48 (GeneID 197407)	-0.66
30	ZNF48 (GeneID 197407)	-0.59
31	ZNF48 (GeneID 197407)	-0.8
32	ZNF48 (GeneID 197407)	-1.57 (active)
33	GFER (GeneID 2671)	0.41
34	GFER (GeneID 2671)	2.03
35	GFER (GeneID 2671)	3.66 (active)
36	GFER (GeneID 2671)	-0.05
37	PLAAT5 (GeneID 117245)	1.63
38	PLAAT5 (GeneID 117245)	1.69
39	PLAAT5 (GeneID 117245)	1.74
40	PLAAT5 (GeneID 117245)	1.38

Continued, starting with the last 15 of the part before.
no.	target	TNF reporter robust z-score
26	LPCAT2 (GeneID 54947)	-0.32
27	LPCAT2 (GeneID 54947)	-0.89
28	LPCAT2 (GeneID 54947)	-0.49
29	ZNF48 (GeneID 197407)	-0.66
30	ZNF48 (GeneID 197407)	-0.59
31	ZNF48 (GeneID 197407)	-0.8
32	ZNF48 (GeneID 197407)	-1.57 (active)
33	GFER (GeneID 2671)	0.41
34	GFER (GeneID 2671)	2.03
35	GFER (GeneID 2671)	3.66 (active)
36	GFER (GeneID 2671)	-0.05
37	PLAAT5 (GeneID 117245)	1.63
38	PLAAT5 (GeneID 117245)	1.69
39	PLAAT5 (GeneID 117245)	1.74
40	PLAAT5 (GeneID 117245)	1.38
41	LPIN3 (GeneID 64900)	-0.23
42	LPIN3 (GeneID 64900)	1.5
43	LPIN3 (GeneID 64900)	0.85
44	LPIN3 (GeneID 64900)	0.42
45	TMEM209 (GeneID 84928)	0.38
46	TMEM209 (GeneID 84928)	0.41
47	TMEM209 (GeneID 84928)	0.97
48	TMEM209 (GeneID 84928)	0.78
49	ELMO1 (GeneID 9844)	0.01
50	ELMO1 (GeneID 9844)	1.1
51	ELMO1 (GeneID 9844)	-0.09
52	ELMO1 (GeneID 9844)	0.63
53	AP2M1 (GeneID 1173)	-1.03
54	AP2M1 (GeneID 1173)	0.28
55	AP2M1 (GeneID 1173)	-0.27
56	AP2M1 (GeneID 1173)	0.44
57	CHST3 (GeneID 9469)	3.31 (active)
58	CHST3 (GeneID 9469)	2.51
59	CHST3 (GeneID 9469)	2.63
60	CHST3 (GeneID 9469)	3.11 (active)
61	UBR3 (GeneID 130507)	0
62	UBR3 (GeneID 130507)	-1.52 (active)
63	UBR3 (GeneID 130507)	-0.05
64	UBR3 (GeneID 130507)	-0.58
65	GRK7 (GeneID 131890)	0.65
66	GRK7 (GeneID 131890)	-0.73
67	GRK7 (GeneID 131890)	-0.39
68	GRK7 (GeneID 131890)	0.97
69	GLRA4 (GeneID 441509)	-0.4
70	GLRA4 (GeneID 441509)	2.95 (active)
71	GLRA4 (GeneID 441509)	0.14
72	GLRA4 (GeneID 441509)	-0.05
73	SLC5A4 (GeneID 6527)	-0.87
74	SLC5A4 (GeneID 6527)	-0.45
75	SLC5A4 (GeneID 6527)	-0.11
76	SLC5A4 (GeneID 6527)	-0.06
77	RAPSN (GeneID 5913)	-0.74
78	RAPSN (GeneID 5913)	0.98
79	RAPSN (GeneID 5913)	-0.29
80	RAPSN (GeneID 5913)	1.15
81	POMZP3 (GeneID 22932)	2.83 (active)
82	POMZP3 (GeneID 22932)	2.15
83	POMZP3 (GeneID 22932)	0.75
84	POMZP3 (GeneID 22932)	0.41
85	CMA1 (GeneID 1215)	-0.54
86	CMA1 (GeneID 1215)	-0.42
87	CMA1 (GeneID 1215)	0.43
88	CMA1 (GeneID 1215)	1.89
89	SNX27 (GeneID 81609)	-1.09
90	SNX27 (GeneID 81609)	-1.52 (active)
91	SNX27 (GeneID 81609)	-1.43
92	SNX27 (GeneID 81609)	-0.21
93	GNRHR (GeneID 2798)	3.8 (active)
94	GNRHR (GeneID 2798)	0.71
95	GNRHR (GeneID 2798)	4.66 (active)
96	GNRHR (GeneID 2798)	2.2
97	CA12 (GeneID 771)	-0.06
98	CA12 (GeneID 771)	-0.08
99	CA12 (GeneID 771)	0.36
100	CA12 (GeneID 771)	-0.49
101	STAB2 (GeneID 55576)	0.26
102	STAB2 (GeneID 55576)	0.25
103	STAB2 (GeneID 55576)	0.6
104	STAB2 (GeneID 55576)	0.14
105	HTR1B (GeneID 3351)	0.47
106	HTR1B (GeneID 3351)	0.25
107	HTR1B (GeneID 3351)	-0.23
108	HTR1B (GeneID 3351)	-0.04
109	FAABTP (GeneID 55266)	1.51
110	FAABTP (GeneID 55266)	1.01
111	FAABTP (GeneID 55266)	0.71
112	FAABTP (GeneID 55266)	-0.2
